According to patent US12303468B2, “Compositions comprising one or more (bio)-alkanediols with antioxidants” (Symrise AG, priority 2020, dated 2025):
Some entries share one result that the patent states for a list of compounds.

System: reactive oxygen species (ROS) on ex vivo skin
Assay: DCF assay on ex vivo skin biopsies, aqueous/alcoholic (ethanolic) test samples
Format: cell-based
Conditions: for reduced ROS scores versus aqueous/alcoholic vehicle with only Cannabidiol: alkanediol added to vehicle plus Cannabidiol, Table 23, FIG. 30; for reduced ROS scores versus aqueous/alcoholic vehicle with only Dihydroavenanthramide: alkanediol added to vehicle plus Dihydroavenanthramide D, Table 22, FIG. 29

SMILES | reduced ROS scores versus aqueous/alcoholic vehicle with only Cannabidiol | reduced ROS scores versus aqueous/alcoholic vehicle with only Dihydroavenanthramide
CCCCC(O)C(C)O (stereo not shown) [2,3-heptanediol] | more than 70% | more than 60%
CCCCCC(O)CO (stereo not shown) [1,2-heptanediol] | more than 70% | more than 60%
